{"sequences": {"note": "The chains behind the UniProt entries cited, without tags or fusion partners.", "UniProt Q14191, whole entry, looked up": "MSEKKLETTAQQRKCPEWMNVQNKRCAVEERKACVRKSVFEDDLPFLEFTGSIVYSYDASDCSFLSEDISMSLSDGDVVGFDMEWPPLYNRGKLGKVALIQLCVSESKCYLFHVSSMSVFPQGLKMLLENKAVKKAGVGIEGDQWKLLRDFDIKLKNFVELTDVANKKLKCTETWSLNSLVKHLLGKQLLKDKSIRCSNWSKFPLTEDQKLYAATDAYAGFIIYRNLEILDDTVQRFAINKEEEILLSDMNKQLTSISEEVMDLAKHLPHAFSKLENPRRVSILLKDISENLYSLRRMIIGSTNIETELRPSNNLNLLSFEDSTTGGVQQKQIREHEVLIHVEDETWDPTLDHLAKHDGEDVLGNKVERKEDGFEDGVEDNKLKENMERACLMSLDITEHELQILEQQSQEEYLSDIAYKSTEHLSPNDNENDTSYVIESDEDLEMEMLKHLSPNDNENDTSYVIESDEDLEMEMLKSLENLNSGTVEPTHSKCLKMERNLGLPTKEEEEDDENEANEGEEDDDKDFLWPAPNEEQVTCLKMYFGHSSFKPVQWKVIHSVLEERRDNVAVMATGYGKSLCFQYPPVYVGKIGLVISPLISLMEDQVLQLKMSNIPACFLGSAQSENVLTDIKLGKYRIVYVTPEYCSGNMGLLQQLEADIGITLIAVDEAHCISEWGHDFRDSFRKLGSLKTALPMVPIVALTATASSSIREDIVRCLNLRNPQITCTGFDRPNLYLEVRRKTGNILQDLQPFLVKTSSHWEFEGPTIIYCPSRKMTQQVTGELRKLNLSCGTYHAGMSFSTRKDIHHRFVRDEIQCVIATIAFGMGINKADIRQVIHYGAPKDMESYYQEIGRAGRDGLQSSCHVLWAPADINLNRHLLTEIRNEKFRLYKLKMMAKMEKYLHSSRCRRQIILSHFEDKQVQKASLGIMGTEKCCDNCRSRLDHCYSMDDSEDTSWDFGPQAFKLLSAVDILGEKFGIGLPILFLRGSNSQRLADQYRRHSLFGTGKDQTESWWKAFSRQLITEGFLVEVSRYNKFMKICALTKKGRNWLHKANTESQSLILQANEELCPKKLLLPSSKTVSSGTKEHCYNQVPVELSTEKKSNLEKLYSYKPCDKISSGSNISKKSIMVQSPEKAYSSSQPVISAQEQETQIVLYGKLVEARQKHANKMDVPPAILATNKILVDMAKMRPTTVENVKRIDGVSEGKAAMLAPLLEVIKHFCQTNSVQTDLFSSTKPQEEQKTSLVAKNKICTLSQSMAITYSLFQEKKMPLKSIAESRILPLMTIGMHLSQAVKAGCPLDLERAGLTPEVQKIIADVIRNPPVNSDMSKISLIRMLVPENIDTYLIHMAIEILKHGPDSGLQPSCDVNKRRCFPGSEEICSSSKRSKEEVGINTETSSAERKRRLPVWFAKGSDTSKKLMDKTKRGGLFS"}, "source": "PubChem BioAssay AID651768", "about": "(National Center for Advancing Translational Sciences (NCATS), 2012)", "note": "The whole screen tested about 360,000 compounds, of which about 1,700 (0.47%) were called active. This list was built around the results that the source calls inconclusive (neither active nor inactive); the mix of calls is not that of the screen. Calls come from the whole dose curve; as a rule, active = well fitted inhibition curve with a large enough effect; inconclusive = small, poorly fitted or top-dose-only effect; inactive = no such curve, though single readings can be large or run the other way. A potency beside an inconclusive call is a rough fit, not a confirmed value. % is set by controls: 0 for no effect and ±100 for the full control effect; potency is the fitted concentration of half-maximal effect."}
{"biological_target": "Bifunctional 3'-5' exonuclease/ATP-dependent helicase WRN (Homo sapiens) (UniProt Q14191)", "assay": "qHTS for Inhibitors of WRN Helicase; note: nearly all actives have a fitted effect of over 55% in size", "settings": "WRN helicase unwinding, fluorescent forked duplex, kinetic; activity change, negative = inhibition: at 114 µM (top of the series) unless noted", "summary_of_the_method": "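Kinetic red-fluorescence monitoring (525/598 nm) tracks WRN helicase activity after 100 nM fluorophore-quencher forked duplex and 2 mM ATP are added to 20 nM enzyme pretreated 15 min at room temperature with compound.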"}
{"smiles": "COC(=O)[C@@]1(Cc2ccc(OC)cc2)[C@H]2c3cc(C(=O)N4CCCC4)n(Cc4ccc(OC(F)(F)F)cc4)c3C[C@H]2CN1C(=O)c1ccccc1", "Potency": "inactive"}
{"smiles": "C=CCn1c(SCC(=O)Nc2ccc(C(=O)O)cc2)nc2sc(C)c(C)c2c1=O", "Potency": "inactive"}
{"smiles": "CC(=O)c1ccc(S(=O)(=O)N2Cc3ccccc3CC2C(=O)O)cc1", "note": "(stereo not drawn)", "Potency": "inconclusive: 50.1 µM [inhibitor, partial curve]"}
{"smiles": "Cc1nnc(N/N=C/c2cc(C)n(-c3ccc(F)cc3)c2C)n1N", "activity change, negative = inhibition": "inactive: -0.464% [at 11.6 µM]"}
{"smiles": "COc1cc(/C=C2\\SC(=Nc3cccnc3)NC2=O)cc(OC)c1OC", "Potency": "active: 12.6 µM"}
{"smiles": "CC(C(=O)Nc1ccc2c(c1)OCO2)N(C)CC(=O)Nc1ccc(Cl)cc1", "note": "(stereo not drawn)", "Potency": "inconclusive: 22.4 µM [inhibitor, full curve]"}
{"smiles": "Cc1nc(NC(=O)C2CCCC2)sc1Cc1ccc2c(c1)OCO2", "Potency": "inactive"}
{"smiles": "O=C(CSc1nc2ccccc2[nH]1)NCCc1ccc(Cl)cc1", "Potency": "inconclusive: 35.5 µM [inhibitor, single point]"}
{"smiles": "CCc1ccc(OC(=O)/C=C/c2ccco2)cc1", "Potency": "inactive"}
{"smiles": "Cc1nc2[nH]c(=S)[nH]c(=O)c2nc1C", "Potency": "inconclusive: 39.8 µM [inhibitor, full curve]"}
{"smiles": "O=C(c1ccc(COc2ccc(F)cc2)o1)n1cc(Br)cn1", "Potency": "inconclusive: 56.2 µM [inhibitor, partial curve]"}
{"smiles": "CCOc1nc(Nc2ccc(OC)c(Cl)c2)nc(N2CCN(c3ccc(OC)cc3)CC2)n1", "activity change, negative = inhibition": "inconclusive: -36.7% [inhibitor] [at 57.1 µM]"}
{"smiles": "CN(CCCN1CCOCC1)C(=O)c1cc(COc2c(F)cccc2F)on1", "Potency": "inconclusive: 89.1 µM [inhibitor, single point]"}
{"smiles": "O=C(O)c1cc([N+](=O)[O-])cc2ccccc12", "Potency": "inactive"}
{"smiles": "CCCOc1ccc(CSc2ncn[nH]2)cc1", "Potency": "inconclusive: 89.1 µM [inhibitor, single point]"}
{"smiles": "C#CCOCCOCCOCCNc1nc(N2CCN(C(=O)[C@H](CCCCN)n3cc([C@@H](N)CC(C)C)nn3)CC2)nc(N2CCN(C(=O)[C@H](Cc3cc4ccccc4[nH]3)n3cc([C@@H](N)Cc4ccc(O)cc4)nn3)CC2)n1", "Potency": "inconclusive: 79.4 µM [inhibitor, partial curve]"}
{"smiles": "N=C1/C(=C/c2cccs2)C(=O)N=C2SN=C(SCc3ccccc3)N12", "Potency": "inconclusive: 56.2 µM [inhibitor, partial curve]"}
{"smiles": "COc1ccc2c(c1)C(=NNC(=O)c1ccccn1)c1cc(OC)ccc1-2", "Potency": "inconclusive: 3.98 µM [inhibitor, full curve]"}
